Data on 1 molecule can be found in US6646006B2, “Enhancement of vascular function by modulation of endogenous nitric oxide production or activity” (The Board of Trustees of the Leland Stanford Junior …, priority 1993, dated 2003).

The data set has as its system hypercholesterolemic rabbits. The data set is described as follows: Oral arginine in cholesterol-fed rabbits: biochemical and physiological measurements. The data set is classed as in vivo, rabbit. The following applies: ten weeks. The source says: Study design: (See, Cooke et al., 1992, supra) Male New Zealand white rabbits (n=49) were assigned to one of three treatment groups: 10 were fed with normal rabbit chow for ten weeks (Control); 19 received chow enriched with 1% cholesterol (Chol); and 20 received a 1% cholesterol diet supplemented with 2.25% L-arginine hydrochloride in the drinking water (Arg.). […] Subsequently the animals were sacrificed and the left main coronary artery and the thoracic aorta were harvested for studies of vascular reactivity and histomorphometry. In some animals, blood was collected for studies of platelet and monocyte reactivity.
Results: Biochemical and physiological measurements. […] Serum cholesterol measurements were elevated equally in both groups receiving the 1% cholesterol diet [50±6 vs. 1629±422 vs. 1852±356 mg/dl respectively for Control (=10), Chol (=13), and Arg (=14)].

As for `N=C(N)NCCC[C@H](N)C(=O)O` [L-arginine], the “hemodynamic measurements, differences between groups” value is reported as “no significant differences”. The Serum cholesterol (Arg group) turned out to be 1852 ± 356 mg/dL.
